# Values from PubChem BioAssay AID1508587 (Peter MacCallum Cancer Centre, 2020)
# Purpose: 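Knockdowns that add to vemurafenib's cut in melanoma glycolysis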 (follow-up of hits)
# Cell system: human WM266.4 melanoma cells with a BRAF V600 mutation
# Reagent: single siRNA against human genes, 25 nM
# Time to read-out: 96 h
# Conditions: vemurafenib 300 nM (about IC25), given 48 h after transfection for 48 h
# Read-out: 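Per-cell lactate from absorbance divided by DAPI nucleus counts, compared with and without vemurafenib, relative to non-targeting siRNA, mean of 2 replicates; nuclear counts also give cell number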
# Scale: lactate per cell, drug vs no drug: higher = less drug-induced drop in lactate per cell; lactate per cell with vemurafenib: higher = more lactate per cell under drug; lactate per cell without drug: higher = more lactate per cell without drug; cell growth with vemurafenib and cell growth without drug: higher = more cell growth over 48 h
# Rule for the call: 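a duplex is active when its lactate-per-cell ratio with versus without drug falls under 0.55, i.e. 2 SD below non-targeting; a gene is confirmed if 2 or more of 4 duplexes pass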
# This is a random part of about 1,600 reagents. Over the whole deposit, 623 (39%) got an active call. 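Calls are for each duplex; lactate ratios contain extreme outliers.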 Reagents against one gene are numbered here.
Target gene,reagent no.,"lactate per cell, drug vs no drug",lactate per cell with vemurafenib,lactate per cell without drug,cell growth with vemurafenib,cell growth without drug,outcome
CCAR1,1,0.64,1.14,1.09,0.55,0.75,inactive
CCAR1,2,0.51,0.7,0.85,0.94,1.01,active
CCAR1,3,0.52,0.88,1.04,0.96,0.99,active
CCAR1,4,0.56,0.91,1.04,0.97,0.75,inactive
DHPS,1,0.62,1.53,1.59,0.34,0.29,inactive
DHPS,2,0.72,1.88,1.73,0.41,0.3,inactive
DHPS,3,0.64,2.83,2.99,0.18,0.05,inactive
DHPS,4,4.95,56.6,6.11,-0.24,-0.1,inactive
AIF1L,1,0.79,2.71,2.37,-0.01,-0.01,inactive
AIF1L,2,0.65,3.62,3.76,0.13,0.01,inactive
AIF1L,3,0.52,1.27,1.68,0.23,0.13,active
AIF1L,4,0.64,0.96,1.03,0.83,0.64,inactive
WNT8A,1,0.48,0.86,1.12,0.24,0.25,active
WNT8A,2,0.86,2.82,2.03,0.12,0.26,inactive
WNT8A,3,0.94,2.86,1.88,0.01,0.01,inactive
WNT8A,4,0.45,1.14,1.54,0.58,0.27,active
PARVA,1,0.61,1.42,1.62,0.33,0.23,inactive
PARVA,2,0.5,0.7,0.94,0.43,0.22,active
PARVA,3,0.86,1.37,1.12,-0.04,0.06,inactive
PARVA,4,0.54,0.94,1.17,1.06,0.57,active
YBEY,1,0.7,2,1.89,-0.11,0.2,inactive
YBEY,2,0.6,1.75,1.9,-0.01,0.07,inactive
YBEY,3,0.3,0.42,0.9,0.06,0.01,active
YBEY,4,0.58,1.12,1.29,0.92,0.61,inactive
ZNF397,1,0.53,0.5,0.68,1.35,1.56,active
ZNF397,2,0.48,1.43,2.15,0.41,0.26,active
ZNF397,3,0.85,2.02,1.79,0.18,0.24,inactive
ZNF397,4,0.52,0.57,0.8,0.4,0.6,active
CT47A1,1,0.53,0.82,1.12,0.87,0.87,active
CT47A1,2,0.79,1.65,1.54,0.42,0.31,inactive
CT47A1,3,0.62,1.55,1.82,0.35,0.29,inactive
CT47A1,4,0.3,0.37,0.88,1.18,0.67,active

6 neighbouring entries already listed, quoted:
Target gene,reagent no.,"lactate per cell, drug vs no drug",lactate per cell with vemurafenib,lactate per cell without drug,cell growth with vemurafenib,cell growth without drug,outcome
ZNF397,1,0.53,0.5,0.68,1.35,1.56,active
ZNF397,2,0.48,1.43,2.15,0.41,0.26,active
ZNF397,3,0.85,2.02,1.79,0.18,0.24,inactive
ZNF397,4,0.52,0.57,0.8,0.4,0.6,active
CT47A1,1,0.53,0.82,1.12,0.87,0.87,active
CT47A1,2,0.79,1.65,1.54,0.42,0.31,inactive

The list goes on.
Target gene,reagent no.,"lactate per cell, drug vs no drug",lactate per cell with vemurafenib,lactate per cell without drug,cell growth with vemurafenib,cell growth without drug,outcome
HPSE2,1,0.33,1.25,2.78,0.01,0,active
HPSE2,2,0.48,0.75,1.14,0.69,0.58,active
HPSE2,3,0.46,0.66,1,0.5,0.62,active
HPSE2,4,0.67,0.96,1.04,1.08,1.01,inactive
KCNK18,1,0.49,1.05,1.27,0.9,0.48,active
KCNK18,2,0.54,1.78,1.94,0.44,0.26,active
KCNK18,3,0.5,0.8,0.92,0.33,0.36,active
KCNK18,4,0.46,0.6,0.78,1.07,1.02,active
KDM3A,1,0.68,2.01,1.85,0.38,0.33,inactive
KDM3A,2,0.59,0.9,0.92,1.28,1.29,inactive
KDM3A,3,0.72,2.25,1.92,0.16,0.12,inactive
KDM3A,4,0.74,1.09,0.92,0.77,0.89,inactive
CRLF1,1,1.16,2.91,1.67,-0.16,0.06,inactive
CRLF1,2,0.66,1.46,1.47,0.48,0.3,inactive
CRLF1,3,0.44,5.6,8.41,-0.07,-0.12,active
CRLF1,4,0.96,3.38,2.31,0.16,0.22,inactive
CLASRP,1,0.52,0.57,0.78,0.73,0.93,active
CLASRP,2,0.92,2.4,1.87,0.26,0.13,inactive
CLASRP,3,-0.04,-0.04,0.79,0.01,0.04,active
CLASRP,4,0.69,1.34,1.4,0.21,0.15,inactive
